According to PubChem BioAssay AID1347076 (National Center for Advancing Translational Sciences (NCATS), 2019):
Hit rate of the full screen: of about 400,000 compounds, about 13,000 (3.2%) were called active. Inconclusive means that the source gave no clear call. Such entries were picked first, then a sample of the others. Calls come from the whole dose curve; as a rule, active = well fitted cell-killing curve with a large enough effect; inconclusive = small, poorly fitted or top-dose-only effect, or effect the other way; inactive = flat fitted curve, though single readings scatter. A potency beside an inconclusive call is a rough fit, not a confirmed value.

Experiment: qHTS assay for MDR1-selective chemotherapeutics: Primary screen using the drug-selected MDR subline cells KB-V1; note: nearly all actives have a fitted effect of over 60% in size
Conditions: KB-V1 MDR cells viability, CellTiter-Glo, 72 h; activity change, negative = cytotoxicity: at 46.1 µM (top of the series)
In short: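 Cells of the MDR subline KB-V1 are plated, dosed with compound at multiple concentrations, and incubated 72 h at 37 degrees C; CellTiter-Glo is then added and luminescence read after 10 min.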
% is set by controls: 0 for no effect and ±100 for the full control effect; potency is the fitted concentration of half-maximal effect.

| SMILES | Potency | activity change, negative = cytotoxicity |
| --- | --- | --- |
| O=C(CN1CCN(S(=O)(=O)N2CCOCC2)CC1)Nc1ccc(Cl)c(Cl)c1 | inconclusive: 11.6 µM [cytotoxic, partial curve] |  |
| Cc1ccc(S(=O)(=O)N2CCN(c3ccnc4cc(Cl)ccc34)CC2)cc1C | inconclusive: 14.6 µM [cytotoxic, partial curve] |  |
| COc1ccccc1N(CC(=O)NCCc1ccccc1)C(=O)CCC(=O)Nc1ccccn1 | inconclusive: 14.6 µM [cytotoxic, partial curve] |  |
| CCOC(=O)c1cccc(NC(=O)C2CCN(S(=O)(=O)c3cccs3)CC2)c1 | active: 7.31 µM |  |
| CC(=O)c1ccc(N2CCN(CC(=O)Nc3ccccc3C(=O)NC3CC3)CC2)c(F)c1 |  | inactive: -1.52% |
| CCOc1ccccc1CNC(=O)CN1C(=O)C2CCCCN2c2ccc(C(=O)N(C)C)cc21 (stereo unspecified) |  | inactive: -0.0336% |
| O=[N+]([O-])c1ccc(O)c(CSc2nnnn2-c2ccccc2)c1 |  | inactive: 3.38% |
| Cc1nn(-c2ccccc2)c(C)c1/C=N/NC(=O)c1cc(-c2ccc(Br)s2)[nH]n1 | inconclusive: 14.6 µM [cytotoxic, partial curve] |  |
| COC(=O)c1ccc(NC(=O)c2c(NCc3ccc(OC)c(OC)c3)sc3c2CCCC3)cc1 | inconclusive: 29.1 µM [cytotoxic, partial curve, poor fit] |  |
| CCn1nnnc1NCc1ccc(N2CCCC2)cc1 | inconclusive: 23.1 µM [cytotoxic, single point] |  |
| CNC(=O)COC(=O)c1ccc(-c2nc3ccccc3s2)s1 | inconclusive: 10.3 µM [cytotoxic, partial curve, poor fit] |  |
| COc1ccccc1CNC(=O)C(Cc1ccccc1)NS(=O)(=O)c1ccc2c(c1)CCN2C(C)=O (stereo unspecified) |  | inactive: -11.7% |
| C(=C\c1ccnc2ccccc12)/c1cc2c3c(c1)CCCN3CCC2 |  | inactive: 14.9% |
| COCCCn1c(=O)c2ccccc2c2ccccc2c1=O | inconclusive: 20.6 µM [rising, partial curve, poor fit] |  |
| Cc1ccc(C)c2sc(N3CCN(C(=O)c4ccc([N+](=O)[O-])o4)CC3)nc12 | inconclusive: 23.1 µM [cytotoxic, single point] |  |
| COCCNC(=S)N1CCC(C(=O)c2ccc3c(c2)OCCO3)CC1 |  | inactive: -21.9% |
| CN(c1cccc(NC(=O)CSc2ccc(Cl)cc2)c1)S(C)(=O)=O | inconclusive: 10.3 µM [cytotoxic, partial curve, poor fit] |  |
| Cc1cc(C(=O)CSc2nnc(C3COc4ccccc4O3)n2C)c(C)n1-c1ccc(F)cc1 (stereo unspecified) | inconclusive: 16.4 µM [cytotoxic, single point] |  |
| O=C(OCCCOC(=O)c1ccc([N+](=O)[O-])o1)c1ccc([N+](=O)[O-])o1 |  | inactive: 5.57% |
| CCCCOc1ccc(C(=O)NCCc2csc3nc(-c4ccccc4F)nn23)cc1 |  | inactive: -0.915% |
| O=C(NC(CC(=O)N1CCN(c2ccccc2O)CC1)c1ccccc1)c1ccccc1Cl (stereo unspecified) | active: 5.8 µM |  |
| CCN(CC)S(=O)(=O)c1ccc(C2=NOC3(C2)N(C)c2ccccc2C3(C)C)cc1 (stereo unspecified) | inconclusive: 6.51 µM [cytotoxic, partial curve] |  |
| COCCn1c(C)cc(C2=NNC(=Nc3ccc(F)cc3)SC2)c1C | active: 10.3 µM |  |

| SMILES | Potency | activity change, negative = cytotoxicity |
| --- | --- | --- |
| CN1C(=O)c2ccccc2N(C)C1c1ccc2c(c1)OCO2 (stereo unspecified) | inconclusive: 18.4 µM [cytotoxic, single point] |  |
| C[C@H](CO)N1C[C@H](C)[C@@H](CN(C)C(=O)Nc2ccc3c(c2)OCO3)Oc2c(NC(=O)c3ccncc3)cccc2C1=O | inconclusive: 29.1 µM [rising, partial curve, poor fit] |  |
| NC(=O)C1(c2ccccc2)OC1c1ccccc1 (stereo unspecified) |  | inactive: 0% |
| CC1(c2nnnn2Cc2ccccc2)CCC(=O)N1CCc1ccc(O)cc1 (stereo unspecified) |  | inactive: -17.7% |
| CCCCCCNc1c([N+](=O)[O-])c(=O)sc2ccccc12 | inconclusive: 20.6 µM [cytotoxic, partial curve, poor fit] |  |
| CCN(C(=O)CCNC(=O)Cn1cnc2ccccc2c1=O)c1ccccc1F | inconclusive: 0.082 µM [rising, full curve] |  |
| C=CCC(CC=C)(C(=O)O)c1ccccc1 | inconclusive: 20.6 µM [rising, single point] |  |
| O=C1CC(NCc2ccncc2)C(=O)N1c1ccccc1 (stereo unspecified) | inconclusive: 16.4 µM [rising, partial curve, poor fit] |  |
| Cc1cc(N(C)C)c(C)cc1/C=C/c1ccnc2ccccc12 | active: 6.51 µM |  |
| CCn1c(-c2ccc(-c3ccccc3)cc2)c[nH]c1=S | inconclusive: 14.6 µM [cytotoxic, partial curve] |  |
| CS(=O)(=O)N1CCC(N2CCN(Cc3ccc(F)cc3)C(=O)C2=O)CC1 |  | inactive: 25.2% |
| CC1(C)COC(Cn2c3ccccc3c3ccccc32)O1 (stereo unspecified) |  | inactive: -14.5% |
| CCC(NC(=O)NCc1ccccc1)(C(F)(F)F)C(F)(F)F |  | inactive: -4.64% |
| CCOC(=S)SCC(=O)Nc1nc(-c2ccc(Br)cc2)cs1 | active: 5.8 µM |  |
| CCOc1nc(-c2ccc(OC)cc2)ccc1-c1noc(-c2cc(OC)c(OC)c(OC)c2)n1 | inconclusive: 2.31 µM [cytotoxic, full curve, poor fit] |  |
| Cc1cc(NC(=O)c2ccc(Cl)c(S(=O)(=O)N3CCCCC3)c2)no1 | inconclusive: 5.17 µM [cytotoxic, full curve] |  |
| CSc1cccc(NC(=O)/C=C/c2cccc(Cl)c2)c1 | active: 18.4 µM |  |
| O=S(=O)(c1ccccc1C(F)(F)F)N1CCN(S(=O)(=O)c2ccccc2C(F)(F)F)CC1 |  | inactive: 5.37% |
| COC(=O)[C@H](CCSC)NC(=O)Nc1ccc(C(C)C)cc1 | inconclusive: 13 µM [cytotoxic, partial curve] |  |
| CCOC(=O)C1=C(NC#N)OC(C)=C(C)C1c1ccc(O)cc1 (stereo unspecified) |  | inactive: -5.25% |
| CCOC(=O)c1ccc(NC(=O)c2ccc(CN3CCc4ccccc4C3)cc2)cc1 | inconclusive: 20.6 µM [cytotoxic, partial curve, poor fit] |  |
| N/C(=N\OC(=O)CCCc1ccccc1)c1cccnc1 |  | inconclusive: -32.1% |
| Cc1cccc(CCNS(=O)(=O)c2ccc(S(=O)(=O)N3CCCCC3)cc2)c1 |  | inactive: -18.8% |

Sorted by number of heavy atoms (rising): three of the compounds above

| SMILES | Potency | activity change, negative = cytotoxicity |
| --- | --- | --- |
| CSc1cccc(NC(=O)/C=C/c2cccc(Cl)c2)c1 | active: 18.4 µM |  |
| Cc1cccc(CCNS(=O)(=O)c2ccc(S(=O)(=O)N3CCCCC3)cc2)c1 |  | inactive: -18.8% |
| CCOC(=O)c1ccc(NC(=O)c2ccc(CN3CCc4ccccc4C3)cc2)cc1 | inconclusive: 20.6 µM [cytotoxic, partial curve, poor fit] |  |
